Experimental data: PubChem BioAssay AID504444 (National Center for Advancing Translational Sciences (NCATS), 2011)
Among all 360,000 compounds or so, about 7,500 (2.1%) were called active. The shares of active, inactive and inconclusive entries below differ from those in the screen. The call rests on the fitted dose curve; in most records, active means well fitted inhibition curve with a large enough effect; inconclusive means small, poorly fitted or top-dose-only effect, or effect the other way; inactive means flat fitted curve, though single readings scatter. A potency beside an inconclusive call is a rough fit, not a confirmed value.

assay: Nrf2 qHTS screen for inhibitors; conditions: A549 ARE-Fluc reporter, luciferase luminescence, 18-24 h; activity change, negative = inhibition: at 46 µM (top of the series); further: nearly all actives have a fitted effect of over 60% in size
Procedure, shortened: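 Reporter: ARE-Fluc in A549. Exposure: 18-24 h, 37 °C, 5% CO2, 5% FBS OPTI-MEM. Readouts: fluorescent cytotoxicity (CellTiter-Fluor), then luminescent Nrf2 signal after BugLite.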
On the % scale 0 is the no-effect control and ±100 the full control effect; potency means the concentration at half of the fitted maximal effect.

SMILES | activity change, negative = inhibition | Potency
Cc1cc(Cn2nnc3ccccc32)c(O)c(C(C)(C)C)c1 | inactive: 1.9% | 
O=C1c2ccccc2S(=O)(=O)N1Cc1nnc(-c2ccccc2Br)o1 | inactive: -29.4% | 
Cc1ccccc1OCc1nnc(SCC(=O)N2c3ccccc3Sc3ccc(Cl)cc32)o1 |  | inconclusive: 0.116 µM [falling, partial curve, poor fit]
Cc1ccc2nc(SCC(=O)N3CCCc4ccccc43)nc(=O)n2c1 | inactive: -14.6% | 
CCN(CC)CCNC(=O)c1ccccc1N | inactive: 17.7% | 
O=C(Nc1ccc(Cl)c(C(F)(F)F)c1)[C@@H]1CC=C[C@@H]2CCN(Cc3ccc(Cl)c(Cl)c3)C(=O)[C@@H]21 |  | active: 11.6 µM
CCc1nnc(NC(=O)C2CC(=O)N(C3CCCCC3)C2)s1 (stereo unspecified) |  | inconclusive: 29.1 µM [falling, single point]
COc1ccccc1-c1nnc(SCCOc2ccccc2C)o1 | inactive: -5.39% | 
CC(C)c1ccc(S(=O)(=O)c2cnc(SCC(=O)Nc3cccc(C(F)(F)F)c3)nc2N)cc1 |  | inconclusive: 29.1 µM [falling, single point]
COc1ccc(/C=C/C(=O)c2ccc(C)c([N+](=O)[O-])c2)cc1O | inactive: 28.2% | 
CCOc1ccc(Nc2nc(NCC3CCCO3)c3ccccc3n2)cc1 (stereo unspecified) |  | inconclusive: 25.9 µM [falling, single point]
CCOC(=O)c1cc(-c2ccc(OC)c(S(=O)(=O)Nc3ccc(OC)cc3OC)c2)on1 |  | inconclusive: 23.1 µM [activator, single point]
COc1ccc(-c2cc(-c3ccc(OC)cc3)nc(-c3ccc4c(c3)NC(=O)CO4)c2)cc1 |  | inconclusive: 29.1 µM [falling, single point]
CCOC(=O)Nc1nc2ccc(Cn3cccc3)cc2[nH]1 |  | inconclusive: 7.31 µM [activator, partial curve]
COc1ccccc1CN(Cc1nc2ccccc2c(=O)[nH]1)S(=O)(=O)c1ccc(C)cc1 | inactive: 1.02% | 
COc1ccccc1N(CC(=O)Nc1ccc(Cc2ccncc2)cc1)S(=O)(=O)c1ccccc1 |  | inconclusive: 14.6 µM [falling, partial curve, poor fit]
C=C(C)COc1ccc2c3c(c(=O)oc2c1OCC(=C)C)CCC3 |  | inconclusive: 29.1 µM [falling, single point]
O=C(O)CC1(CC(=O)Nc2cc(C(F)(F)F)cc(C(F)(F)F)c2)CCCCC1 |  | active: 23.1 µM
COc1ccc(S(=O)(=O)Nc2ccc3c(c2)OCO3)cc1OC | inactive: 2.86% | 
Cc1cc(C)nc(SCC(=O)NC2CCCCC2C)n1 (stereo unspecified) | inactive: 2.95% | 
CC(C)(C)n1nnnc1C(c1cc2cc3c(cc2[nH]c1=O)OCCO3)N1CCSCC1 (stereo unspecified) | inactive: 12% | 
O=C1ON=C(c2ccccc2)/C1=C/c1ccco1 | inactive: 3.52% | 
Cc1cc(N2CCOCC2)nc2ccccc12 |  | inconclusive: 6.51 µM [activator, full curve]

2 of the compounds above, as a markdown table:

| SMILES | activity change, negative = inhibition | Potency |
| --- | --- | --- |
| COc1ccc(/C=C/C(=O)c2ccc(C)c([N+](=O)[O-])c2)cc1O | inactive: 28.2% |  |
| CCOc1ccc(Nc2nc(NCC3CCCO3)c3ccccc3n2)cc1 (stereo unspecified) |  | inconclusive: 25.9 µM [falling, single point] |

Carrying on:

SMILES | activity change, negative = inhibition | Potency
Cc1cccn2c(=O)c(C=O)c(Cl)nc12 | inactive: -8.72% | 
Cc1cc(CNC(=O)c2cc(COc3ccc(F)c(F)c3)on2)nn1C |  | inconclusive: 10.3 µM [activator, partial curve]
CCCCC1CCC(C(=O)Nc2ccccc2N2CCOCC2)CC1 (stereo unspecified) |  | inconclusive: 32.6 µM [falling, single point]
Cc1cc(C(=O)OCC(=O)NCc2cccs2)ccc1[N+](=O)[O-] | inactive: 22.7% | 
CC1CCCN(C(=O)CN2C(=O)c3ccccc3S2(=O)=O)C1 (stereo unspecified) | inactive: -11.1% | 
O=C1c2ccccc2C(=O)c2c1ccc1c(=O)n(C3CCCCC3)[nH]c21 |  | inconclusive: 20.6 µM [falling, single point]
COc1ccc(NC(=O)/C(C#N)=C\C=C\c2ccco2)cc1 |  | inconclusive: 29.1 µM [falling, single point]
C=CCn1c(SCC(=O)NC2(C)CCS(=O)(=O)C2)nc2ccccc21 (stereo unspecified) |  | inconclusive: 23.1 µM [falling, single point]
Cc1cc(C)n2nc(C(=O)Nc3ccc4c(c3)CCC4)nc2n1 |  | inconclusive: 2.91 µM [activator, full curve]
C[C@@](Cc1ccccc1)(C(=O)O)N1C(=O)c2ccc(C(=O)O)cc2C1=O | inactive: -12% | 
c1ccc(-c2nnc3n2CCCC3)cc1 | inactive: 11.6% | 
CCCOc1ccc(-c2nnn(CC(=O)Nc3cccc(C(=O)OC)c3)n2)cc1 |  | inconclusive: 11.6 µM [falling, partial curve]
Cc1ccc(C)c(S(=O)(=O)c2nnn3c2nc(N2CCOCC2)c2sccc23)c1 |  | inconclusive: 29.1 µM [falling, single point]
CNS(=O)(=O)c1cccc(C(=O)OCC(=O)Nc2ccc(-c3nc4ccc(C)cc4s3)cc2)c1 |  | inconclusive: 0.259 µM [activator, full curve, poor fit]
CN(CC(=O)Nc1ccc(Cl)cc1)C1CCCCC1 |  | inconclusive: 3.66 µM [falling, partial curve, poor fit]
Cc1ccc(Nc2c(-c3cc(Br)ccc3F)nc3cc(C)ccn23)cc1 |  | inconclusive: 32.6 µM [falling, partial curve, poor fit]
CCCc1cc(=O)[nH]c(SC/C=C/c2ccccc2)n1 |  | inconclusive: 29.1 µM [activator, single point]
CCN(CC)S(=O)(=O)c1cc(-c2nnc(Nc3ccc(OC)c(C(N)=O)c3)c3ccccc23)ccc1C |  | inconclusive: 18.4 µM [falling, single point]
Cc1cccc2sc(NC(=O)c3cc(S(=O)(=O)N(C)C)ccc3N3CCCC3)nc12 |  | inconclusive: 13 µM [falling, partial curve, poor fit]
Cc1sc2cc3c(c(C(=O)c4ccccc4)[n+]2c1C)-c1cccc2cccc-3c12 |  | inconclusive: 29.1 µM [falling, single point]
Cc1ccc(NC(=O)c2cccc(N3CCCS3(=O)=O)c2)cc1 |  | inconclusive: 2.06 µM [activator, partial curve]
Cc1c(N=Nc2c(-c3ccc([N+](=O)[O-])cc3)[nH]n(C(N)=S)c2=O)cccc1[N+](=O)[O-] |  | active: 18.4 µM
Cc1c(Cl)cccc1NC(=O)c1cc(S(=O)(=O)N2CCOCC2)cn1C |  | inconclusive: 8.2 µM [falling, partial curve, poor fit]
